Laboratory results from patent US20060029946A1.
No constants are given. Whether binding was seen depends on the method and setting. Some binding calls cover weakened binding; strength is not graded here.

Chains of the proteins cited; added tags and fusions are not shown. Lines headed by an entry give the natural chain unless they say otherwise; changes in a name come on top.
UniProt P17081: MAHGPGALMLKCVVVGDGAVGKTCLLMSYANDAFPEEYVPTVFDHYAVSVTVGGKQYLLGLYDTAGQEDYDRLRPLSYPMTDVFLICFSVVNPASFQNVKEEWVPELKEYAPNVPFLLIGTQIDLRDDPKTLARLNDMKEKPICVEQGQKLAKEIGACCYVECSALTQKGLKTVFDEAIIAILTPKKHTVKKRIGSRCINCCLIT
UniProt P42768: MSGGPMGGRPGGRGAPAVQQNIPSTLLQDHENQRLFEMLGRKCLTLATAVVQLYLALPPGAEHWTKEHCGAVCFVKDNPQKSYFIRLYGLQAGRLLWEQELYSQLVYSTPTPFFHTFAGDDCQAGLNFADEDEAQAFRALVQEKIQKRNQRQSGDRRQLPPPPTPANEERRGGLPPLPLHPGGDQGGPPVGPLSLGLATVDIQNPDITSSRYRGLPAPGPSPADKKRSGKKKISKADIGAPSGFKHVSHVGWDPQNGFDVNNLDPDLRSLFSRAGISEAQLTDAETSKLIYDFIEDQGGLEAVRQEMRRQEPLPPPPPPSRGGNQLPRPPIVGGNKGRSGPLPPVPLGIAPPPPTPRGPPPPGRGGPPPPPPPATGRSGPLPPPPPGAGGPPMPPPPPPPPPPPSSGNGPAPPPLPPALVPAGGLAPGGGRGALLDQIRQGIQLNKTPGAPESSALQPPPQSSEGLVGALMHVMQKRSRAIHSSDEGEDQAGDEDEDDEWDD

Target: TC10 (activated GTPase) (UniProt P17081)
Test: fluorescence response with different activated GTPases

For “WASP fragment F271C labeled with I-SO dye (from UniProt P42768 201-320)”, the binding was “binds”.
